Assay results published in doi:10.1101/2023.12.14.571674.
These are yes or no findings as the source states them, for the method shown. Binding seen in cells or lysates may run through a third protein. These calls come from enrichment with a bait or labelling near it, and not all partners need be listed.

B1: tyrosine-protein phosphatase non-receptor type 14 (PTPN14) (enzyme, UniProt Q15678 1-1187)
chain: MPFGLKLRRTRRYNVLSKNCFVTRIRLLDSNVIECTLSVESTGQECLEAVAQRLELRETHYFGLWFLSKSQQARWVELEKPLKKHLDKFANEPLLFFGVMFYVPNVSWLQQEATRYQYYLQVKKDVLEGRLRCTLDQVIRLAGLAVQADFGDYNQFDSQDFLREYVLFPMDLALEEAVLEELTQKVAQEHKAHSGILPAEAELMYINEVERLDGFGQEIFPVKDNHGNCVHLGIFFMGIFVRNRIGRQAVIYRWNDMGNITHNKSTILVELINKEETALFHTDDIENAKYISRLFATRHKFYKQNKICTEQSNSPPPIRRQPTWSRSSLPRQQPYILPPVHVQCGEHYSETHTSQDSIFHGNEEALYCNSHNSLDLNYLNGTVTNGSVCSVHSVNSLNCSQSFIQASPVSSNLSIPGSDIMRADYIPSHRHSAIIVPSYRPTPDYETVMRQMKRGILHTDSQSQSLRNLNIINTHAYNQPEDLVYSQPEMRERHPYTVPYGPQGVYSNKLVSPSDQRNPKNNVVPSKPGASAISHTVSTPELANMQLQGSHNYSTAHMLKNYLFRPPPPYPRPRPATSTPDLASHRHKYVSGSSPDLVTRKVQLSVKTFQEDSSPVVHQSLQEVSEPLTATKHHGTVNKRHSLEVMNSMVRGMEAMTLKSLHLPMARRNTLREQGPPEEGSGSHEVPQLPQYHHKKTFSDATMLIHSSESEEEEEEAPESVPQIPMLREKMEYSAQLQAALARIPNKPPPEYPGPRKSVSNGALRQDQASLPPAMARARVLRHGPAKAISMSRTDPPAVNGASLGPSISEPDLTSVKERVKKEPVKERPVSEMFSLEDSIIEREMMIRNLEKQKMAGLEAQKRPLMLAALNGLSVARVSGREENRVDATRVPMDERFRTLKKKLEEGMVFTEYEQIPKKKANGIFSTAALPENAERSRIREVVPYEENRVELIPTKENNTGYINASHIKVVVGGAEWHYIATQGPLPHTCHDFWQMVWEQGVNVIAMVTAEEEGGRTKSHRYWPKLGSKHSSATYGKFKVTTKFRTDSVCYATTGLKVKHLLSGQERTVWHLQYTDWPDHGCPEDVQGFLSYLEEIQSVRRHTNSMLEGTKNRHPPIVVHCSAGVGRTGVLILSELMIYCLEHNEKVEVPMMLRLLREQRMFMIQTIAQYKFVYQVLIQFLQNSRLI
B2: GAB1 (protein, UniProt Q13480 1-694)
chain: MSGGEVVCSGWLRKSPPEKKLKRYAWKRRWFVLRSGRLTGDPDVLEYYKNDHAKKPIRIIDLNLCQQVDAGLTFNKKEFENSYIFDINTIDRIFYLVADSEEEMNKWVRCICDICGFNPTEEDPVKPPGSSLQAPADLPLAINTAPPSTQADSSSATLPPPYQLINVPPHLETLGIQEDPQDYLLLINCQSKKPEPTRTHADSAKSTSSETDCNDNVPSHKNPASSQSKHGMNGFFQQQMIYDSPPSRAPSASVDSSLYNLPRSYSHDVLPKVSPSSTEADGELYVFNTPSGTSSVETQMRHVSISYDIPPTPGNTYQIPRTFPEGTLGQTSKLDTIPDIPPPRPPKPHPAHDRSPVETCSIPRTASDTDSSYCIPTAGMSPSRSNTISTVDLNKLRKDASSQDCYDIPRAFPSDRSSSLEGFHNHFKVKNVLTVGSVSSEELDENYVPMNPNSPPRQHSSSFTEPIQEANYVPMTPGTFDFSSFGMQVPPPAHMGFRSSPKTPPRRPVPVADCEPPPVDRNLKPDRKVKPAPLEIKPLPEWEELQAPVRSPITRSFARDSSRFPMSPRPDSVHSTTSSSDSHDSEENYVPMNPNLSSEDPNLFGSNSLDGGSSPMIKPKGDKQVEYLDLDLDSGKSTPPRKQKSSGSGSSVADERVDYVVVDQQKTLALKSTREAWTDGRQSTESETPAKSVK
B3: Rab11 family-interacting protein 1 (Rab11FIP1) (protein, UniProt Q6WKZ4 1-1283)
chain: MSLMVSAGRGLGAVWSPTHVQVTVLQARGLRAKGPGGTSDAYAVIQVGKEKYATSVSERSLGAPVWREEATFELPSLLSSGPAAAATLQLTVLHRALLGLDKFLGRAEVDLRDLHRDQGRRKTQWYKLKSKPGKKDKERGEIEVDIQFMRNNMTASMFDLSMKDKSRNPFGKLKDKIKGKNKDSGSDTASAIIPSTTPSVDSDDESVVKDKKKKSKIKTLLSKSNLQKTPLSQSMSVLPTSKPEKVLLRPGDFQSQWDEDDNEDESSSASDVMSHKRTASTDLKQLNQVNFTLPKKEGLSFLGGLRSKNDVLSRSNVCINGNHVYLEQPEAKGEIKDSSPSSSPSPKGFRKKHLFSSTENLAAGSWKEPAEGGGLSSDRQLSESSTKDSLKSMTLPSYRPAPLVSGDLRENMAPANSEATKEAKESKKPESRRSSLLSLMTGKKDVAKGSEGENPLTVPGREKEGMLMGVKPGEDASGPAEDLVRRSEKDTAAVVSRQGSSLNLFEDVQITEPEAEPESKSEPRPPISSPRAPQTRAVKPRLEVSPEAQPTARLPSPTDSPSSLPPLPSSSGQASVPSELGHGADTQSSESPSVFSSLSSPIAAPISTSTPIESWPLVDRGQAKSEGPPLLPKAELQTESLTPVPNSGSSALGSLFKQPSFPANKGTEDSLMGRTRETGTEKNTSSLELEESLPEQPETGRQEEELPRFPCKKQDYSPSSGEAQEVPFALSLSSDGAVSPVGELAAGGDRDLESQAGSLVESKARDAAEEVAPPLPMGASVPSIDSMMRKLEEMGLNLRKDQKKTKKRVSFSEQLFTEEAVAGAALLVEGHSSCPQELNPAWSVAGNASDGEPPESPHAEDSERESVTTPGPATCGAPASPADHLLLPSQEESFSEVPMSEASSAKDTPLFRMEGEDALVTQYQSKASDHEGLLSDPLSDLQLVSDFKSPIMADLNLSLPSIPEVASDDERIDQVEDDGDQVEDDGETAKSSTLDIGALSLGLVVPCPERGKGPSGEADRLVLGEGLCDFRLQAPQASVTAPSEQTTEFGIHKPHLGKSSSLDKQLPGPSGGEEEKPMGNGSPSPPPGTSLDNPVPSPSPSEIFPVTHSFPSSAHSDTHHTSTAESQKKATAEGSAGRVENFGKRKPLLQAWVSPSETHPVSAQPGAGTGSAKHRLHPVKPMNAMATKVANCSLGTATIISENLNNEVMMKKYSPSDPAFAYAQLTHDELIQLVLKQKETISKKEFQVRELEDYIDNLLVRVMEETPNILRIPTQVGKKAGKM
B4: diacylglycerol kinase epsilon (DGKE) (enzyme, UniProt P52429 1-567)
chain: MEAERRPAPGSPSEGLFADGHLILWTLCSVLLPVFITFWCSLQRSRRQLHRRDIFRKSKHGWRDTDLFSQPTYCCVCAQHILQGAFCDCCGLRVDEGCLRKADKRFQCKEIMLKNDTKVLDAMPHHWIRGNVPLCSYCMVCKQQCGCQPKLCDYRCIWCQKTVHDECMKNSLKNEKCDFGEFKNLIIPPSYLTSINQMRKDKKTDYEVLASKLGKQWTPLIILANSRSGTNMGEGLLGEFRILLNPVQVFDVTKTPPIKALQLCTLLPYYSARVLVCGGDGTVGWVLDAVDDMKIKGQEKYIPQVAVLPLGTGNDLSNTLGWGTGYAGEIPVAQVLRNVMEADGIKLDRWKVQVTNKGYYNLRKPKEFTMNNYFSVGPDALMALNFHAHREKAPSLFSSRILNKAVYLFYGTKDCLVQECKDLNKKVELELDGERVALPSLEGIIVLNIGYWGGGCRLWEGMGDETYPLARHDDGLLEVVGVYGSFHCAQIQVKLANPFRIGQAHTVRLILKCSMMPMQVDGEPWAQGPCTVTITHKTHAMMLYFSGEQTDDDISSTSDQEDIKATE
B5: LIN7A (protein, UniProt O14910 1-233)
chain: MLKPSVTSAPTADMATLTVVQPLTLDRDVARAIELLEKLQESGEVPVHKLQSLKKVLQSEFCTAIREVYQYMHETITVNGCPEFRARATAKATVAAFAASEGHSHPRVVELPKTDEGLGFNVMGGKEQNSPIYISRIIPGGVAERHGGLKRGDQLLSVNGVSVEGEHHEKAVELLKAAKDSVKLVVRYTPKVLEEMEARFEKLRTARRRQQQQLLIQQQQQQQQQQTQQNHMS
B6: polyphosphoinositide phosphatase (enzyme, UniProt Q92562 1-907)
chain: MPTAAAPIISSVQKLVLYETRARYFLVGSNNAETKYRVLKIDRTEPKDLVIIDDRHVYTQQEVRELLGRLDLGNRTKMGQKGSSGLFRAVSAFGVVGFVRFLEGYYIVLITKRRKMADIGGHAIYKVEDTNMIYIPNDSVRVTHPDEARYLRIFQNVDLSSNFYFSYSYDLSHSLQYNLTVLRMPLEMLKSEMTQNRQESFDIFEDEGLITQGGSGVFGICSEPYMKYVWNGELLDIIKSTVHRDWLLYIIHGFCGQSKLLIYGRPVYVTLIARRSSKFAGTRFLKRGANCEGDVANEVETEQILCDASVMSFTAGSYSSYVQVRGSVPLYWSQDISTMMPKPPITLDQADPFAHVAALHFDQMFQRFGSPIIILNLVKEREKRKHERILSEELVAAVTYLNQFLPPEHTIVYIPWDMAKYTKSKLCNVLDRLNVIAESVVKKTGFFVNRPDSYCSILRPDEKWNELGGCVIPTGRLQTGILRTNCVDCLDRTNTAQFMVGKCALAYQLYSLGLIDKPNLQFDTDAVRLFEELYEDHGDTLSLQYGGSQLVHRVKTYRKIAPWTQHSKDIMQTLSRYYSNAFSDADRQDSINLFLGVFHPTEGKPHLWELPTDFYLHHKNTMRLLPTRRSYTYWWTPEVIKHLPLPYDEVICAVNLKKLIVKKFHKYEEEIDIHNEFFRPYELSSFDDTFCLAMTSSARDFMPKTVGIDPSPFTVRKPDETGKSVLGNKSNREEAVLQRKTAASAPPPPSEEAVSSSSEDDSGTDREEEGSVSQRSTPVKMTDAGDSAKVTENVVQPMKELYGINLSDGLSEEDFSIYSRFVQLGQSQHKQDKNSQQPCSRCSDGVIKLTPISAFSQDNIYEVQPPRVDRKSTEIFQAHIQASQGIMQPLGKEDSSMYREYIRNRYL

What follows are binders tested against insulin receptor (human (endogenous in HepG2)) (assay: affinity purification with mass spectrometry).

binding, binds:
B1
B2
B3
B4
B5
B6
